Measurements: patent US4316889A, “Novel peptidyl-arginine aldehyde derivatives and process for the preparation thereof” (Richter Gedeon Vegyeszeti Gyar Rt., priority 1979, dated 1982)
Where a name gives a salt, the structure may show the parent alone. Part of at least one peptide drawing is inferred or uncertain, most often the ends.

Target: T1, US Standard Human Thrombin (Homo sapiens, UniProt P00734)
T1 construct: US Standard Human Thrombin; purchased NIH, Bethesda, Maryland, USA
Experiment: Antithrombin activity: amount of drug for tenfold increase of the thrombin-time of fibrinogen
Type: biochemical
Method: Antithrombin activity is defined by the amount of drug required for a tenfold increase of the thrombin-time of fibrinogen (thrombintime: time of clotting induced by thrombin).
Antithrombin activities were assayed in the following system:
0.5 percent bovine fibrinogen (0.2 ml). in 0.9 percent sodium chloride solution, peptide in TRIS/HCl buffer (0.1 ml., pH=7.4), and US Standard Human Thrombin (0.1 ml.) (NIH, Bethesda, Maryland, USA; 5 U/ml.). The clotting time of the system devoid of peptide is 15 seconds.

## N=C(NCCC[C@@H](C=O)NC(=O)[C@@H]1CCCN1C(=O)[C@H](N)Cc1ccccc1)NC(=O)O [H--D-Phe-- Pro--Arg(COOH)--H . 0.5 HCl, D-Phenylalanyl-L-prolyl-N^G -carboxy-L-arginine aldehyde hemihydrochloride]
0 hour after dissolution in TRIS/HCl buffer pH=7.4, bovine fibrinogen, thrombin 5 U/ml
  Amount of drug required for tenfold increase of thrombin-time following dissolution of peptide, 0 hour: 0.050 µg/mL
0 hour, activity of H-D-Phe-Pro-Arg(COOH)-H arbitrarily taken as 100
  relative activity (ra), 0 hour: 550
20 hours in TRIS/HCl buffer, relative to H-D-Phe-Pro-Arg(COOH)-H at 0 hour = 100
  relative activity (ra), 20 hours: 79
20 hours standing in TRIS/HCl buffer pH=7.4
  Amount of drug required for tenfold increase of thrombin-time following dissolution of peptide, 20 hours: 0.350 µg/mL
Partial protonation (hemihydrochloride)
  activity relative to the compound devoid of hydrochloric acid: five times
